Cleaved PARP after 72 h of treatment

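The test systems are human melanoma cell lines, treated with a pair of drugs for 72 h and then stained and imaged. Each value is the cleaved-PARP-positive fraction of nuclei relative to DMSO-treated wells, in %, so that 100 equals the control and higher values mean more apoptosis. Concentrations were fixed for each drug; these are the higher of two levels. These are primary screening values without error estimates. Basal and induced levels differ widely between cell lines.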 An unselected part of the screen is shown. A dash means that no value is listed here.

Compounds and concentrations:
SNS-032 (50 nM): CC(C)(C)c1cnc(CSc2cnc(NC(=O)C3CCNCC3)s2)o1
ZM336372 (10000 nM): Cc1ccc(NC(=O)c2cccc(N(C)C)c2)cc1NC(=O)c1ccc(O)cc1
cisplatin (8000 nM): N.N.[Cl][Pt][Cl]
sorafenib (2000 nM): CNC(=O)c1cc(Oc2ccc(NC(=O)Nc3ccc(Cl)c(C(F)(F)F)c3)cc2)ccn1
GSK0660 (5000 nM): COC(=O)c1sccc1S(=O)(=O)Nc1ccc(Nc2ccccc2)cc1OC
stibogluconate (10000 nM): O=C(O)[C@@H]1[O][Sb](=[O])([O][Sb]2(=[O])[O][C@H]([C@H](O)CO)[C@H](O)[C@H](C(=O)O)[O]2)[O][C@H]([C@H](O)CO)[C@@H]1O (some centres not stated)
GW441756 (2000 nM): Cn1cc(/C=C2\C(=O)Nc3cccnc32)c2ccccc21
darinaparsin (2000 nM): C[As](C)SC[C@H](NC(=O)CC[C@H](N)C(=O)O)C(=O)NCC(=O)O
palbociclib (200 nM): CC(=O)c1c(C)c2cnc(Nc3ccc(N4CCNCC4)cn3)nc2n(C2CCCC2)c1=O
AS-252424 (5000 nM): O=C1NC(=O)/C(=C/c2ccc(-c3ccc(F)cc3O)o2)S1

| Drugs | SK-MEL-30 | MeWo | A2058 | WM451Lu | G-361 | SK-MEL-28 | WM1745 | COLO 800 | C32 | IST-MEL1 | IPC-298 | LOX IMVI |
|---|---|---|---|---|---|---|---|---|---|---|---|---|
| palbociclib and GSK0660 | 256 | 141 | 121 | 198 | 38.8 | 167 | - | 113 | 234 | 114 | 48.6 | 99.7 |
| sorafenib and ZM336372 | 30.9 | 42.7 | 65.9 | 181 | 91.9 | 75.9 | 78.7 | 52.9 | 84.9 | 178 | 46.1 | 98.9 |
| stibogluconate and SNS-032 | 71.2 | 159 | 137 | 240 | 109 | 754 | 176 | 169 | 148 | 191 | 29.2 | 120 |
| cisplatin and stibogluconate | 110 | 68.7 | 157 | 818 | 119 | 60.9 | 111 | 110 | 73.9 | 99.2 | 66.3 | 175 |
| GSK0660 and cisplatin | 83.0 | 90.8 | 44.1 | 46.5 | 61.3 | 135 | - | 157 | 74.8 | 136 | 178 | 37.1 |
| AS-252424 and cisplatin | 76.0 | 68.6 | 104 | 209 | 103 | 327 | - | 41.7 | 150 | 82.9 | 188 | 167 |
| GSK0660 and sorafenib | 155 | 102 | 137 | 56.6 | 102 | 86.3 | - | 90.4 | 178 | 249 | 116 | 51.2 |
| stibogluconate and sorafenib | 37.1 | 94.8 | 75.4 | 286 | 192 | 38.9 | 150 | 73.6 | 61.7 | 72.8 | 164 | 133 |
| stibogluconate and GW441756 | 65.0 | 164 | 168 | 86.0 | 46.3 | 192 | - | 255 | 82.0 | 43.7 | 104 | 111 |
| sorafenib and darinaparsin | 68.3 | 128 | 154 | 214 | 167 | 65.9 | 150 | 105 | 77.8 | 47.9 | 190 | 166 |
| ZM336372 and palbociclib | 19.0 | 60.7 | 131 | 60.1 | 215 | 141 | 59.0 | 59.8 | 160 | 91.5 | 179 | 163 |
| GSK0660 and darinaparsin | 70.5 | 197 | 95.3 | 350 | 55.5 | 271 | 229 | 83.8 | 99.6 | 69.5 | 139 | 134 |
| GW441756 and GSK0660 | 72.2 | 64.3 | 126 | 79.5 | 19.7 | 30.0 | 142 | 67.3 | 98.2 | 116 | 54.0 | 91.3 |
| ZM336372 and cisplatin | 106 | 67.1 | 86.5 | 38.2 | 65.0 | 48.4 | 88.4 | 134 | 96.1 | 116 | 49.8 | 119 |
| GSK0660 and ZM336372 | 119 | 61.1 | 122 | 92.8 | 74.1 | 156 | 116 | 77.2 | 89.7 | 130 | 46.1 | 142 |
| darinaparsin and GW441756 | 61.6 | 132 | 198 | 188 | 33.8 | 138 | 256 | 112 | 80.5 | 132 | 63.0 | 123 |
| GSK0660 and AS-252424 | 72.3 | 51.8 | 205 | 131 | 58.0 | 87.6 | 107 | 89.4 | 106 | 28.4 | 92.4 | 89.6 |
| SNS-032 and ZM336372 | 47.5 | 153 | 118 | 52.5 | 178 | 75.1 | 111 | 147 | 59.0 | 29.4 | 133 | 45.4 |
| SNS-032 and sorafenib | 35.5 | 222 | 93.6 | 65.8 | 63.0 | 196 | 141 | 110 | 70.2 | 157 | 79.3 | 80.6 |
| palbociclib and cisplatin | 138 | 153 | 127 | 90.5 | 169 | 260 | 107 | 72.7 | 186 | 622 | 223 | 74.0 |
| AS-252424 and GW441756 | 74.6 | 84.5 | 93.7 | 119 | 47.9 | 133 | 126 | 161 | 92.8 | 53.7 | 97.6 | 80.3 |
| palbociclib and sorafenib | 174 | 48.8 | 82.2 | 100 | 46.8 | 349 | 123 | 141 | 124 | 93.7 | 189 | 78.3 |
| ZM336372 and GW441756 | 101 | 27.4 | 106 | 138 | 176 | 54.4 | 136 | 151 | 88.7 | 30.5 | 75.6 | 17.7 |
| palbociclib and GW441756 | 68.2 | 95.5 | 110 | 23.8 | 114 | 99.3 | - | 116 | 95.7 | 181 | 246 | 332 |
| SNS-032 and GSK0660 | 107 | 54.0 | 105 | 35.2 | 68.0 | 49.6 | 133 | 170 | 226 | 28.6 | 83.2 | 76.1 |
| palbociclib and SNS-032 | 164 | 74.0 | 63.0 | 214 | 72.6 | 98.6 | 196 | 461 | 238 | 143 | 119 | 239 |
| GW441756 and sorafenib | 66.4 | 41.5 | 101 | 60.7 | 174 | 57.3 | - | 53.2 | 183 | 126 | 69.8 | 63.2 |
| SNS-032 and AS-252424 | 58.5 | 109 | 182 | 106 | 87.2 | 79.9 | 144 | 110 | 118 | 27.3 | 61.9 | 92.9 |
| cisplatin and sorafenib | 106 | 82.1 | 104 | 84.2 | 170 | 194 | 137 | 230 | 66.6 | 108 | 56.1 | 59.4 |
| GSK0660 and stibogluconate | 59.9 | 45.6 | 50.8 | 98.4 | 65.6 | 97.3 | - | 57.4 | 73.1 | 27.2 | 57.2 | 63.1 |
| stibogluconate and palbociclib | 59.7 | 74.1 | 143 | 143 | 148 | 57.6 | 132 | 95.5 | 173 | 95.1 | 119 | 81.5 |
| palbociclib and darinaparsin | 104 | 58.4 | 111 | 68.8 | 59.5 | 36.7 | 125 | 130 | 317 | 97.8 | 202 | 152 |
| AS-252424 and ZM336372 | 74.1 | 88.1 | 149 | 39.9 | 100 | 155 | 108 | 147 | 104 | 167 | 149 | 67.8 |
| darinaparsin and ZM336372 | 18.5 | 157 | 86.5 | 323 | 88.4 | 946 | 63.4 | 110 | 52.9 | 78.2 | 41.1 | 52.9 |
| AS-252424 and palbociclib | 68.9 | 42.7 | 156 | 193 | 199 | 177 | - | 117 | 214 | 118 | 143 | 125 |
| SNS-032 and darinaparsin | 269 | 152 | 291 | 481 | 200 | 83.1 | 135 | 41.4 | 145 | 54.1 | 47.7 | 175 |
| darinaparsin and cisplatin | 121 | 126 | 66.0 | 85.7 | 132 | 87.7 | 93.6 | 51.4 | 52.6 | 75.6 | 101 | 95.2 |
| SNS-032 and cisplatin | 202 | 113 | 57.4 | 112 | 91.7 | 276 | 78.3 | 113 | 82.0 | 68.3 | 99.3 | 127 |
| GW441756 and cisplatin | 103 | 198 | 71.8 | 38.6 | 71.8 | 105 | - | 274 | 139 | 80.4 | 116 | 70.3 |

Values as published with doi:10.1371/journal.pone.0140310, rounded.